Assay results: patent US20200155661A1 (LENTIGEN TECHNOLOGY, published 2020)
Substitutions are numbered along the chain they refer to. Results are given in words; binding and its absence hold for the method and conditions named. Some entries that bind do so weakly or less than the wild type.

Amino acid sequences for entries named in this document (tags omitted). Residues count along the entry.
UniProt P20273, residues 20-687: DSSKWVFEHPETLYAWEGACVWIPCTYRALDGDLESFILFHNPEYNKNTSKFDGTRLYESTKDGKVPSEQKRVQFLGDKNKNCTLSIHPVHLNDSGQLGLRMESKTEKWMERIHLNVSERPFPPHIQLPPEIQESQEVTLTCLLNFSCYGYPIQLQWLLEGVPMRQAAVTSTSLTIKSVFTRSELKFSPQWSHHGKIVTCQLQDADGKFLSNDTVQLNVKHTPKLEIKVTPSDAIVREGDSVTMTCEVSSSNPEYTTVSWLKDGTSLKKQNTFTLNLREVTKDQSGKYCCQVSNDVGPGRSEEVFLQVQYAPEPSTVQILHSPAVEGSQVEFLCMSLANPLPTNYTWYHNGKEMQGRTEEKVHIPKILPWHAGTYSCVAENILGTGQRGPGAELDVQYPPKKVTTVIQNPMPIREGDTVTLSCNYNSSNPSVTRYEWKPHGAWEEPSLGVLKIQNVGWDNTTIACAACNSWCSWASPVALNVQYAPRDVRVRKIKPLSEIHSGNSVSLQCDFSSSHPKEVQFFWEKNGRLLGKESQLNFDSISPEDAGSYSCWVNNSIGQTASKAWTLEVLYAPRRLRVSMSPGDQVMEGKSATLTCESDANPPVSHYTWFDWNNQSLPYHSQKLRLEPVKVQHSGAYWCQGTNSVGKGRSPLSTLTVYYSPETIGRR

B1: CD22-specific binder (scFv1) 16P (scFv)
scFv: QVQLQQSGPGLVKPSQTLSLTCAISGDSVSSNSAAWNWIRQSPSRGLEWLGRTYYRSKWYNDYAVSVKSRITINPDTSKNQFSLQLNSVTPEDTAVYYCAQEVQPHDAFDIWGQGTMVTVSSGGGGSGGGGSGGGGSDIQMTQSPSSVSASVGDKVTITCRASQDVSGWLAWYQQKPGLAPQLLIFGASTLQGEVPSRFSGSGSGTDFTLTISSLQPEDFATYYCQQAKNFPYTFGQGTKLEIKR
notes: also called founder clone
B2: CD22-specific binder (scFv18) 16P15 (scFv)
scFv: QVQLQQSGPGLVKPSQTLSLTCAISGDSVSSNSAAWNWIRQSPSRGLEWLGRTYYRSKWYNDYAVSVKSRITINPDTSKNQFSLQLNSVTPEDTAVYYCAQEVEPHDALDIWGQGTMVTVSSGGGGSGGGGSGGGGSDIQMTQSPSSVSASVGDKVTITCRASQDVSGWLAWYQQKPGLAPQLLIFGASTLQGEVPSRFSGSGSGTDFTLTISSLQPEDFATYYCQQAKYFPYTFGQGTKLEIK
B3: CD22-specific binder (scFv8) 16P20 (scFv)
scFv: B2 scFv
B4: CD22-specific binder (scFv17) 16P13 (scFv)
scFv: B2 scFv with D27N, H106Q, L109F, S202G
B5: CD22-specific binder (scFv10) 16P6 (scFv)
scFv: B2 scFv with E104Q, H106D, L109F, V118I, F186S, E194G, Y230N
B6: CD22-specific binder (scFv15) 16P3v2 (scFv)
scFv: B2 scFv with P14H, T21A, E104Q, H106Q, S147F, T157I, F186S
B7: CD22-specific binder (scFv12) 16P17 (scFv)
scFv: B2 scFv with P14H, L109F, S149Y, F186S
B8: CD22-specific binder (scFv14) 16P1 (scFv)
scFv: B2 scFv with A23D, V103I, L109F, G113D, D138V, F186S, T190S, E194G
B9: CD22-specific binder (scFv13) 16P20v2 (scFv)
scFv: B2 scFv with E104Q, H106D, L109F, F186S, Y230N
B10: CD22-specific binder (scFv9) 16P2 (scFv)
scFv: B2 scFv with S78F, Q140K
B11: CD22-specific binder (scFv16) 16P8 (scFv)
scFv: B2 scFv with N61T, S69N, H106Q, L109F, Q237R
B12: CD22-specific binder (scFv6) 16P3 (scFv)
scFv: B2 scFv with V2I, E104Q, H106D, F186S, Y230N
B13: CD22-specific binder (scFv11) 16P10 (scFv)
scFv: B2 scFv with H106Q, L109F, Q237P

These binders were tested against recombinant human CD22 (labeled CD22 used in flow cytometry of yeast) (human) (UniProt P20273) (assay: flow cytometry analysis of yeast-displayed ScFv).

binding | Binder
binds | B1
binds | B2
binds | B3
binds | B4
binds | B5
binds | B6
binds | B7
binds | B8
binds | B9
binds | B10
binds | B11
binds | B12
binds | B13
